Experimental data from patent US20230407098A1, “METHOD FOR EVALUATING CYSTINE UPTAKE ABILITY OF CELL, KIT FOR EVALUATING CYSTINE UPTAKE ABILITY OF CELL, METHOD FOR DETERMINING SELENOCYSTEINE, AND KIT FOR DETERMINING SELENOCYSTEINE” (DOJINDO LABORATORIES, priority 2021, published 2023).

Test: Reactivity of FOdA with selenocystine, cystine and glutathione in the presence of TCEP (fluorescence)
Conditions: buffers at pH 6 and 6.5, FOdA 10 μM, TCEP 200 μM, 37° C. 30 minutes, FIG. 1

Question: With `C=CC(=O)Oc1ccc2c(c1)Oc1cc(OC(=O)C=C)ccc1C21OC(=O)c2ccccc21` [FOdA, Fluorescein O,O′-diacrylate] as the compound, how does the “reaction with cystine or glutathione” value (10 μM cystine or 20 μM glutathione) read?
Answer: hardly reacted

Question: What about the “reaction with selenocystine to emit fluorescence” value (10 μM selenocystine) of the same compound?
Answer: selectively reacted with selenocystine to emit fluorescence
